The target of assay [1] is wild-type c-Jun (UniProt P05412). Briefly: IP with anti-Fbw7 antibody, Western blot. A general note: Immunoblotting shows a protein as a band on a membrane.
For assay [2], the target named is NOTCH1 intracellular domain, full length (NICD-FL) (human) (UniProt P46531). Briefly: co-IP and immunoblot with myc-NICD constructs in TICs.
Assay [3] shares this target. Briefly: co-IP Western blot in shTBC1D15 CD133(+) TICs.
Assay [4] shares this target. Briefly: co-IP Western blot in CD133(+) TICs.
The target is the same in assay [5]. Briefly: co-IP Western blot with NICD deletion mutants in CD133(+) TICs.
For assay [6] the target is unchanged. Briefly: co-IP Western blot of cell fractions of CD133(+) TICs.
Assay [7] has as its target NOTCH3 (UniProt Q9UM47). Briefly: large-scale immunoaffinity purification and LC-MS analysis.
Assay [8] has as its target T1, NUMB isoform 5 (UniProt P49757).
T1 sequence (looked up): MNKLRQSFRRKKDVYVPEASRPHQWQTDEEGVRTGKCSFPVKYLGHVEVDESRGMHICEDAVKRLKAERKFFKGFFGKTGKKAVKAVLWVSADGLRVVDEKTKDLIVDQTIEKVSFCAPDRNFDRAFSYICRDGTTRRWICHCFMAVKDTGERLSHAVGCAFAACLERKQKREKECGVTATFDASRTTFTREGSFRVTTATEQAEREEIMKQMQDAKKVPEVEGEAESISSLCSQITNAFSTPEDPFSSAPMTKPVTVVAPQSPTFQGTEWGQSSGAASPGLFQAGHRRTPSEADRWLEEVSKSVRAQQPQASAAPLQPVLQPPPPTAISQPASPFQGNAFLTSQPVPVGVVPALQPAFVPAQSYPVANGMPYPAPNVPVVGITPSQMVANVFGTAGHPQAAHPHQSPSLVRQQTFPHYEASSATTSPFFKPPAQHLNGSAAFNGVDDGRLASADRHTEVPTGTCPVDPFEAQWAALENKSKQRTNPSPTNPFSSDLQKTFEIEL
Briefly: cell-free in vitro binding assay.

The chains behind the UniProt entries cited, without tags or fusion partners. Residues count along the entry.
UniProt P05412: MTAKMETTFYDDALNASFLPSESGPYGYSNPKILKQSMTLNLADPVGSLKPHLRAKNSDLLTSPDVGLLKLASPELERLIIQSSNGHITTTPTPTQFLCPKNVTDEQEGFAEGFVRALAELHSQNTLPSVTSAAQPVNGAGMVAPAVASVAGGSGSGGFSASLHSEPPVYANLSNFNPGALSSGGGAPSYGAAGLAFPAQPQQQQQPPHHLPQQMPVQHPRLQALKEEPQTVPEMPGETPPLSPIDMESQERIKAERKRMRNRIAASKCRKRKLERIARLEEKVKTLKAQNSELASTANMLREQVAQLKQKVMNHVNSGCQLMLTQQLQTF
UniProt P46531, residues 1754-2555: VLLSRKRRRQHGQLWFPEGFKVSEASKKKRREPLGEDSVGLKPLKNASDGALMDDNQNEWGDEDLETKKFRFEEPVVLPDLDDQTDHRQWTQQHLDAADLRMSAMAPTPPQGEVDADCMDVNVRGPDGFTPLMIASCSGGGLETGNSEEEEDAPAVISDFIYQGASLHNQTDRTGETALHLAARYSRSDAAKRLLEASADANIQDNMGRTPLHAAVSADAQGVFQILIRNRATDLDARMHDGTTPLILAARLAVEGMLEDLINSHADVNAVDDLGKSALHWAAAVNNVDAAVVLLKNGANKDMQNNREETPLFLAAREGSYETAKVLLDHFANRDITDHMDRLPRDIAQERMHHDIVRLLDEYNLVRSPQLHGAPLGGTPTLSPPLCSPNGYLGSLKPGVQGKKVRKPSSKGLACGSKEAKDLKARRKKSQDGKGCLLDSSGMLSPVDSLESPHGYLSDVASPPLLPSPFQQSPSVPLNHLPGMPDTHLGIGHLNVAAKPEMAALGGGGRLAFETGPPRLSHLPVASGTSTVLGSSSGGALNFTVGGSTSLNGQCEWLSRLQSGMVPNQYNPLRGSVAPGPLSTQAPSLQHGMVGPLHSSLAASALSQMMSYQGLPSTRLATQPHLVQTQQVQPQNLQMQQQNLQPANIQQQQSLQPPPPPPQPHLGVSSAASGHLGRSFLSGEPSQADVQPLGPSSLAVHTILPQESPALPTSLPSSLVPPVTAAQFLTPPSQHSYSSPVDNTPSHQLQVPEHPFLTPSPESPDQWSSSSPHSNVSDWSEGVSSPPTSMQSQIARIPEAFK
UniProt Q9UM47, residues 40-2321: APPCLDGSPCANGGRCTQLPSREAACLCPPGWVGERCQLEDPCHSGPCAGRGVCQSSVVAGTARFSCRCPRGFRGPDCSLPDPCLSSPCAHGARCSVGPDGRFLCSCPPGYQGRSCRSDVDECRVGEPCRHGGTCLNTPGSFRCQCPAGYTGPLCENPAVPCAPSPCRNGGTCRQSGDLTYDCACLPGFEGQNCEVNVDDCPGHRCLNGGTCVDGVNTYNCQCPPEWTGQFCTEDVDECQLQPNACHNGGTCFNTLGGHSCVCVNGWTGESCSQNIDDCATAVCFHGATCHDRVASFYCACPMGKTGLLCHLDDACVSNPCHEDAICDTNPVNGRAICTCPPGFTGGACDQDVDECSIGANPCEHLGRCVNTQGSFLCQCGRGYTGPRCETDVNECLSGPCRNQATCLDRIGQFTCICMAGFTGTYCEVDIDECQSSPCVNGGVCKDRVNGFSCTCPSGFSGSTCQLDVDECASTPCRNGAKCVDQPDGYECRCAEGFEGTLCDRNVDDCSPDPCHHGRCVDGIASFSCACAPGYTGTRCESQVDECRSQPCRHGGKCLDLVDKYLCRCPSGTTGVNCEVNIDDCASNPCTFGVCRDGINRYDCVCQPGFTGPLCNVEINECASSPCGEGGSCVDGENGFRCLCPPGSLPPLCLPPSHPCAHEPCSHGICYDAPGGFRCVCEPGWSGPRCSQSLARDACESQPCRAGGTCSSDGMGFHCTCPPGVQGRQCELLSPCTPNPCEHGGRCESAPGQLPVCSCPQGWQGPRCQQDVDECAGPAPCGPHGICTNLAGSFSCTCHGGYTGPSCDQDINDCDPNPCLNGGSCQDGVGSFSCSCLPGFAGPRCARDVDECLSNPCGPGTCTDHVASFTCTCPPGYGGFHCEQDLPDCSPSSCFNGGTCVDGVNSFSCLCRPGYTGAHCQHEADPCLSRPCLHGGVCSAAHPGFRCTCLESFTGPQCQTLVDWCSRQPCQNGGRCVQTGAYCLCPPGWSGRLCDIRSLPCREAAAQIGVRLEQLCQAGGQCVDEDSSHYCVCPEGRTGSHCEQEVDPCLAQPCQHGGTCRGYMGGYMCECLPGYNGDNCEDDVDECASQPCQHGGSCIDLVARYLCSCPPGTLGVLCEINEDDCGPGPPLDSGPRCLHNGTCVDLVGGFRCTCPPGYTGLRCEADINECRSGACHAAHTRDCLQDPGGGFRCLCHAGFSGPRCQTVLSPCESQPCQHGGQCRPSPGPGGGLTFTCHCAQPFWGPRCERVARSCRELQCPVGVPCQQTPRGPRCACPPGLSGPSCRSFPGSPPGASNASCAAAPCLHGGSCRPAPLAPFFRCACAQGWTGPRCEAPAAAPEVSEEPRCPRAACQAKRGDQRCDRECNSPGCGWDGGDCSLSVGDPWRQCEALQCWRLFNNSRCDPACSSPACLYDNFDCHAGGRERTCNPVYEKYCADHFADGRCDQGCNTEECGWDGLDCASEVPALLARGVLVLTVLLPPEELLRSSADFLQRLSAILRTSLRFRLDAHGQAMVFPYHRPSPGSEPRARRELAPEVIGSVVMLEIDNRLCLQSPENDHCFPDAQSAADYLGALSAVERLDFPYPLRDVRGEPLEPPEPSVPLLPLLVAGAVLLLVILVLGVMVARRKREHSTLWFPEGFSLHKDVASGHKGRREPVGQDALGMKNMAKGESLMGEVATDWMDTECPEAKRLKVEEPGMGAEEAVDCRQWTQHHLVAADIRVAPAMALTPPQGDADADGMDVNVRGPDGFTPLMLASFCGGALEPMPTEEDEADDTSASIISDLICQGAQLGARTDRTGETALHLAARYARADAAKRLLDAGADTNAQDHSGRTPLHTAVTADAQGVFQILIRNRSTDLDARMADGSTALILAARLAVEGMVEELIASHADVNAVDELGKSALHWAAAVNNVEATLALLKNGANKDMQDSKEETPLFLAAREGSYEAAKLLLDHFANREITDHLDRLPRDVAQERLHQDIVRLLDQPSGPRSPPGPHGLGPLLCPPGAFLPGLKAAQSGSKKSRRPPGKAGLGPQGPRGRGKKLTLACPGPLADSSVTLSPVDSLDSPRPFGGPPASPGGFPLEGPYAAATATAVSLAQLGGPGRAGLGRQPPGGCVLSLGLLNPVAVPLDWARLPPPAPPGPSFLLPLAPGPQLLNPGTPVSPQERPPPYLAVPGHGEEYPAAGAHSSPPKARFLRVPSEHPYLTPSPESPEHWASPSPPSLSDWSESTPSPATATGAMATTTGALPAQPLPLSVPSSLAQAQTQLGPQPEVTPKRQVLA
UniProt Q969H0: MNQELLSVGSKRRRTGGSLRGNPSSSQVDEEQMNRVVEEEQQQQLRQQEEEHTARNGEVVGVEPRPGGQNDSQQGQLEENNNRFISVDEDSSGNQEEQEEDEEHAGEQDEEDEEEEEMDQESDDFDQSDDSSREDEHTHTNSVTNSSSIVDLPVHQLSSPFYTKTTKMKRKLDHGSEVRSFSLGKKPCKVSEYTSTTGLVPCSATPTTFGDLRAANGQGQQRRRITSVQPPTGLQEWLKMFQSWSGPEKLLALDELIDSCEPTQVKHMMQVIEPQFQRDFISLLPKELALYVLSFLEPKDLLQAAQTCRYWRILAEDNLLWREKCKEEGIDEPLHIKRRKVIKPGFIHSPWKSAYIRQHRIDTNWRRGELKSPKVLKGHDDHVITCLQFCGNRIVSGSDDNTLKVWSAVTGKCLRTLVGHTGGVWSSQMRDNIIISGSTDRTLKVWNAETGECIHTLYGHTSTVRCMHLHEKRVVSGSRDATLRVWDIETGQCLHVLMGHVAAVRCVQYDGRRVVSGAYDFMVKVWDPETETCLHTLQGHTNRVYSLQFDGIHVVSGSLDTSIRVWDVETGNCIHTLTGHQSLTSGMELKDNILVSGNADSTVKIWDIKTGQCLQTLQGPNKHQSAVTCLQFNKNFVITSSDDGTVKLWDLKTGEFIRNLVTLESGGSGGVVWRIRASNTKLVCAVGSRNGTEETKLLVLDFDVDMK
UniProt P49336: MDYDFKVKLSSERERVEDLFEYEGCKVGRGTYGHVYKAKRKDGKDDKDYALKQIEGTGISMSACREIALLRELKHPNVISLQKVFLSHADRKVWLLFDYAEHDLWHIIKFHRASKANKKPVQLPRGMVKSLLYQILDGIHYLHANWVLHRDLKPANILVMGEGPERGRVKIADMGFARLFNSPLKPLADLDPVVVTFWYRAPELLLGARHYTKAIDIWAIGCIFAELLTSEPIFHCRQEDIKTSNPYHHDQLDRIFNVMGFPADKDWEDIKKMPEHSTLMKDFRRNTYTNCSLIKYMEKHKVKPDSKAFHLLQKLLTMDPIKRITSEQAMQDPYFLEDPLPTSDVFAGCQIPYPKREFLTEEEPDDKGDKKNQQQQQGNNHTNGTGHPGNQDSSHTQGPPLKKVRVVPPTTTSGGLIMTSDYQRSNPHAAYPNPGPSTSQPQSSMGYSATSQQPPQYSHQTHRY

For assay [9], the target named is T2, GST-NUMB-PTB (UniProt P49757).
T2 sequence (looked up): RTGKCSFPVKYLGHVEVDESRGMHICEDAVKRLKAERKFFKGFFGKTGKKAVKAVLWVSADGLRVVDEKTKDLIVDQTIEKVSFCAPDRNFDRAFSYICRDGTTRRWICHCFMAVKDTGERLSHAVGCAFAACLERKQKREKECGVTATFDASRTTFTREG
The assay can be described thus: cell-free in vitro binding assay.

Assay [10] addresses T2, GST-NUMB-PTB. The assay can be described thus: cell-free in vitro binding assay, GST fragments on beads.
Assay [11] concerns the target T3, GST-NUMB-full length (UniProt P49757).
T3 sequence (looked up): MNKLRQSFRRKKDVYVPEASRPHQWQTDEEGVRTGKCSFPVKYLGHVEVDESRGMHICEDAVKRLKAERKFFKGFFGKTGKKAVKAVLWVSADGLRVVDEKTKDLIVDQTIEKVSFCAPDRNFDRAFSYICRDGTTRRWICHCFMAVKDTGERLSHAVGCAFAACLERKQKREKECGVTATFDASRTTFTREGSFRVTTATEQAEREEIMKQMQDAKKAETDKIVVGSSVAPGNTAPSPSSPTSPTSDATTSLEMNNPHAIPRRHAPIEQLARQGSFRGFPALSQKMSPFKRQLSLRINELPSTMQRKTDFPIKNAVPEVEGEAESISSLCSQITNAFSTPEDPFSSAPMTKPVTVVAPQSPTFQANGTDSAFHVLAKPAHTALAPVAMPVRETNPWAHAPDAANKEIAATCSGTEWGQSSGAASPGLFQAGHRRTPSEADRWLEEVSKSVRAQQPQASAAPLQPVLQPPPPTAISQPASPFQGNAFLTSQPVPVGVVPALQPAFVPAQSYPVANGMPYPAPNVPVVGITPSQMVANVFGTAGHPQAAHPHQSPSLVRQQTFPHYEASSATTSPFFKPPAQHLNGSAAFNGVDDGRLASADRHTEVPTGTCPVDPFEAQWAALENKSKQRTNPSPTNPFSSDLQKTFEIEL
Described as above.

The target in assay [12] is NOTCH1 intracellular domain, full length (NICD-FL) (human) (UniProt P46531). The assay can be described thus: TBC1D15 knockdown in TICs.

We go through six molecules from patent publication US20220323386A1 (UNIVERSITY OF SOUTHERN CALIFORNIA, published 2022).

These are yes or no findings as the source states them, for the method shown. For some of these results: In cells and extracts the contact can be indirect. Some binding calls cover weakened binding; strength is not graded here. For some of these results: Where a sequence is shown, tags or fusion partners need not be part of it.

For the molecule “Fbw7 (from UniProt Q969H0 1-707) (enzyme)”, the binding entry in assay [1] is on record as “binds”.

For the molecule “CDK8 (from UniProt P49336 1-464) (enzyme)”, in assay [2], the binding entry is “binds”.

B1: Tre2-Bub2-Cdc16 domain family member 15 (TBC1D15) (other, UniProt Q8TC07 1-691, looked up)
chain: MAAAGVVSGKIIYEQEGVYIHSSCGKTNDQDGLISGILRVLEKDAEVIVDWRPLDDALDSSSILYARKDSSSVVEWTQAPKERGHRGSEHLNSYEAEWDMVNTVSFKRKPHTNGDAPSHRNGKSKWSFLFSLTDLKSIKQNKEGMGWSYLVFCLKDDVVLPALHFHQGDSKLLIESLEKYVVLCESPQDKRTLLVNCQNKSLSQSFENLLDEPAYGLIQAGLLDRRKLLWAIHHWKKIKKDPYTATMIGFSKVTNYIFDSLRGSDPSTHQRPPSEMADFLSDAIPGLKINQQEEPGFEVITRIDLGERPVVQRREPVSLEEWTKNIDSEGRILNVDNMKQMIFRGGLSHALRKQAWKFLLGYFPWDSTKEERTQLQKQKTDEYFRMKLQWKSISQEQEKRNSRLRDYRSLIEKDVNRTDRTNKFYEGQDNPGLILLHDILMTYCMYDFDLGYVQGMSDLLSPLLYVMENEVDAFWCFASYMDQMHQNFEEQMQGMKTQLIQLSTLLRLLDSGFCSYLESQDSGYLYFCFRWLLIRFKREFSFLDILRLWEVMWTELPCTNFHLLLCCAILESEKQQIMEKHYGFNEILKHINELSMKIDVEDILCKAEAISLQMVKCKELPQAVCEILGLQGSEVTTPDSDVGEDENVVMTPCPTSAFQSNALPTLSASGARNDSPTQIPVSSDVCRLTPA
notes: TBC1D15 as present in cell lysates (co-IP); also called TBC1 domain family member 15
Consider B1, for which the binding entry in assay [2], in assay [3], in [4], in assay [5], in assay [6] and in [7] was “binds” in each case.

B2: Flag-tagged TBC1D15 protein (protein, UniProt Q8TC07 1-691, looked up)
chain: MAAAGVVSGKIIYEQEGVYIHSSCGKTNDQDGLISGILRVLEKDAEVIVDWRPLDDALDSSSILYARKDSSSVVEWTQAPKERGHRGSEHLNSYEAEWDMVNTVSFKRKPHTNGDAPSHRNGKSKWSFLFSLTDLKSIKQNKEGMGWSYLVFCLKDDVVLPALHFHQGDSKLLIESLEKYVVLCESPQDKRTLLVNCQNKSLSQSFENLLDEPAYGLIQAGLLDRRKLLWAIHHWKKIKKDPYTATMIGFSKVTNYIFDSLRGSDPSTHQRPPSEMADFLSDAIPGLKINQQEEPGFEVITRIDLGERPVVQRREPVSLEEWTKNIDSEGRILNVDNMKQMIFRGGLSHALRKQAWKFLLGYFPWDSTKEERTQLQKQKTDEYFRMKLQWKSISQEQEKRNSRLRDYRSLIEKDVNRTDRTNKFYEGQDNPGLILLHDILMTYCMYDFDLGYVQGMSDLLSPLLYVMENEVDAFWCFASYMDQMHQNFEEQMQGMKTQLIQLSTLLRLLDSGFCSYLESQDSGYLYFCFRWLLIRFKREFSFLDILRLWEVMWTELPCTNFHLLLCCAILESEKQQIMEKHYGFNEILKHINELSMKIDVEDILCKAEAISLQMVKCKELPQAVCEILGLQGSEVTTPDSDVGEDENVVMTPCPTSAFQSNALPTLSASGARNDSPTQIPVSSDVCRLTPA
Turning to B2, in [8], the binding result is “binds”.

B3: purified TBC1D15 protein (protein, UniProt Q8TC07 1-691, looked up)
chain: MAAAGVVSGKIIYEQEGVYIHSSCGKTNDQDGLISGILRVLEKDAEVIVDWRPLDDALDSSSILYARKDSSSVVEWTQAPKERGHRGSEHLNSYEAEWDMVNTVSFKRKPHTNGDAPSHRNGKSKWSFLFSLTDLKSIKQNKEGMGWSYLVFCLKDDVVLPALHFHQGDSKLLIESLEKYVVLCESPQDKRTLLVNCQNKSLSQSFENLLDEPAYGLIQAGLLDRRKLLWAIHHWKKIKKDPYTATMIGFSKVTNYIFDSLRGSDPSTHQRPPSEMADFLSDAIPGLKINQQEEPGFEVITRIDLGERPVVQRREPVSLEEWTKNIDSEGRILNVDNMKQMIFRGGLSHALRKQAWKFLLGYFPWDSTKEERTQLQKQKTDEYFRMKLQWKSISQEQEKRNSRLRDYRSLIEKDVNRTDRTNKFYEGQDNPGLILLHDILMTYCMYDFDLGYVQGMSDLLSPLLYVMENEVDAFWCFASYMDQMHQNFEEQMQGMKTQLIQLSTLLRLLDSGFCSYLESQDSGYLYFCFRWLLIRFKREFSFLDILRLWEVMWTELPCTNFHLLLCCAILESEKQQIMEKHYGFNEILKHINELSMKIDVEDILCKAEAISLQMVKCKELPQAVCEILGLQGSEVTTPDSDVGEDENVVMTPCPTSAFQSNALPTLSASGARNDSPTQIPVSSDVCRLTPA
In the case of B3, the binding entry in assay [9], in [10] and in assay [11] was “binds” throughout.

B4: NUMB (protein, UniProt P49757 1-651, looked up)
chain: MNKLRQSFRRKKDVYVPEASRPHQWQTDEEGVRTGKCSFPVKYLGHVEVDESRGMHICEDAVKRLKAERKFFKGFFGKTGKKAVKAVLWVSADGLRVVDEKTKDLIVDQTIEKVSFCAPDRNFDRAFSYICRDGTTRRWICHCFMAVKDTGERLSHAVGCAFAACLERKQKREKECGVTATFDASRTTFTREGSFRVTTATEQAEREEIMKQMQDAKKAETDKIVVGSSVAPGNTAPSPSSPTSPTSDATTSLEMNNPHAIPRRHAPIEQLARQGSFRGFPALSQKMSPFKRQLSLRINELPSTMQRKTDFPIKNAVPEVEGEAESISSLCSQITNAFSTPEDPFSSAPMTKPVTVVAPQSPTFQANGTDSAFHVLAKPAHTALAPVAMPVRETNPWAHAPDAANKEIAATCSGTEWGQSSGAASPGLFQAGHRRTPSEADRWLEEVSKSVRAQQPQASAAPLQPVLQPPPPTAISQPASPFQGNAFLTSQPVPVGVVPALQPAFVPAQSYPVANGMPYPAPNVPVVGITPSQMVANVFGTAGHPQAAHPHQSPSLVRQQTFPHYEASSATTSPFFKPPAQHLNGSAAFNGVDDGRLASADRHTEVPTGTCPVDPFEAQWAALENKSKQRTNPSPTNPFSSDLQKTFEIEL
Take B4: the binding result in assay [12] is given as “binds”.
